# Out of some 360,000 compounds screened, about 9,100 (2.5%) were called active. Inconclusive results, whose numbers are uncertain, are shown with a selection of clear calls. No stated cut-off is given here; in the data, active means max response below about -50%; inconclusive means no clear call, values can overlap the other calls; inactive means above that.
# Amino acid sequences for entries named in this document (tags omitted).
# UniProt P35462, whole entry, looked up: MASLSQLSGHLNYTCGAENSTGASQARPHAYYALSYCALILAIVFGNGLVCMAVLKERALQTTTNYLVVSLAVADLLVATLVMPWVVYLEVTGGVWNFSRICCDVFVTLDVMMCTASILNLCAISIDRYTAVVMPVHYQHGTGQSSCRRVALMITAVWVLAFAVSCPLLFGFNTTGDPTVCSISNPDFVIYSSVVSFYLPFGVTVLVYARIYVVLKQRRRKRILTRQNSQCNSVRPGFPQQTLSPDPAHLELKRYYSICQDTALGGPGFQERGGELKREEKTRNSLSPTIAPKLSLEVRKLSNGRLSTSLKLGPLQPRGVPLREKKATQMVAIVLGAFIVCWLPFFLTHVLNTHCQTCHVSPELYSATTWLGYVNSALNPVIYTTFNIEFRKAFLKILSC
# Target: D(3) dopamine receptor (Homo sapiens) (UniProt P35462)
# Assay: qHTS of D3 Dopamine Receptor Antagonist: qHTS
# Conditions: D3R cells, DiscoveRx beta-arrestin luminescence, antagonist mode; hits give low values
# How it was run: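 Cells plated overnight at 1500 cells/well, then exposed to library compounds with dopamine controls for 90 minutes at 37 degrees C. DiscoveRx reagent added for 30–60 minutes at room temperature; luminescence read, quantitative HTS format.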
# On the % scale 0 is the no-effect control and ±100 the full control effect.
row,Compound,"max response, negative = inhibition"
1,CCOC(=O)C(=CNc1ccc(N2CCOCC2)cc1)C(=O)OCC,inactive: 78.2%
2,CC1CCCC(C)N1CCCNC(=O)c1ccc2nc(N3CCOCC3)sc2c1 (stereo not drawn),inconclusive: -34.4%
3,COc1cc(C(=O)N2CCC(C(=O)Nc3cccc(C(C)=O)c3)CC2)cc(OC)c1OC,active: -53.2%
4,CCC(=O)Nc1cc(OC)c(NC(=O)c2ccccc2)cc1OC,inconclusive: -32.8%
5,CCNC(=S)NNC(=O)c1cccn(Cc2ccc(Cl)cc2Cl)c1=O,active: -59.2%
6,COc1ccc(S(=O)(=O)N(C(=O)C(C)C)c2ccc3oc(=O)sc3c2)cc1,inconclusive: -34.7%
7,O=C(N/N=C/c1ccc(N2CCCCC2)o1)c1ccccc1,inconclusive: -40.8%
8,CCN1C(=O)[C@H]2[C@@H](c3ccc(-c4ccc5c(c4)OCO5)c(OC)c3)N[C@@](Cc3ccccc3)(C(=O)OC)[C@H]2C1=O,inconclusive: -34.4%
9,Cc1cc(=O)oc2c3c(cc(OCC(=O)NC4CC4)c12)OC(C)(C)CC3,inactive: 0.221%
10,CCc1ccc([C@@H]2CC=C(C(=O)O)[C@H](c3ccc(C)cc3)N2S(=O)(=O)c2ccc(C)cc2)cc1,inconclusive: -40.4%
11,C=CCSc1nc(-c2ccccc2)c2cc(Cl)ccc2n1,inconclusive: -43.4%
12,Cc1ccc(NC(=S)NNC(=O)c2cccc([N+](=O)[O-])c2)cc1Cl,inconclusive: -31%
13,CSc1cccc(NC(N)=S)c1,inconclusive: -31.6%
14,COC(=O)c1sccc1NC(=O)/C=C/C(=O)O,inconclusive: -43.5%
15,O=C1NC(c2ccccc2)=C(c2nc3ccccc3s2)C(c2ccc(F)cc2)N1 (stereo not drawn),active: -56.3%
16,COc1ccccc1NS(=O)(=O)c1cccc(C(=O)NCC(c2ccco2)N2CCCC2)c1 (stereo not drawn),inconclusive: -34.8%
17,Cc1cccc(NC(=O)/C(C#N)=C/c2cn(CC(=O)NCc3ccco3)c3ccccc23)c1,inactive: 1.18%
18,COc1ccccc1N=C1NC(=O)/C(=C/c2ccc(N(C)C)cc2)S1,active: -95.2%
19,O=C(COC(=O)c1ccccc1NS(=O)(=O)c1cccs1)NC1CCCCC1,inactive: 2.33%
20,O=C(O)CN=CC1=C(O)CC(c2ccccc2)CC1=O (stereo not drawn),inactive: 17%
21,C/C(=N\NC(=O)c1cccc2ccccc12)c1ccccn1,active: -92.9%
22,COC(=O)CCS(=O)(=O)c1nc(-c2ccccc2)cc(C(F)(F)F)n1,active: -78.4%

# Part of the list above in a different format:
row | Compound | max response, negative = inhibition
18 | COc1ccccc1N=C1NC(=O)/C(=C/c2ccc(N(C)C)cc2)S1 | active: -95.2%
19 | O=C(COC(=O)c1ccccc1NS(=O)(=O)c1cccs1)NC1CCCCC1 | inactive: 2.33%

# (next part)

row,Compound,"max response, negative = inhibition"
1,CSc1n[nH]c(-c2ccc(C(F)(F)F)cc2)n1,inconclusive: -35%
2,Cc1cc(/C=C2\C(=O)NN(c3ccccc3)C2=O)c(C)n1-c1ccccc1O,inconclusive: -45%
3,O=S(=O)(c1ccccc1)N1CCC(O)(CSc2ccc(Cl)cc2)CC1,inactive: -3.02%
4,CCN(CC)C(=O)C1=C(C)N(CCC2=CCCCC2)C(=O)C(CC(=O)NCc2cccc3ccccc23)C1 (stereo not drawn),inconclusive: -38.3%
5,N#C/C(=C\c1ccc(O)c(O)c1)C(=O)NCCCc1ccccc1,active: -80%
6,Cn1nc(C(=O)O)c(=O)n(C)c1=O,inactive: 2.38%
7,COc1ccc([N+](=O)[O-])c(C=CC(=O)c2ccccn2)c1,inconclusive: -33.8%
8,CN1CCN(c2ccccc2NC(=O)c2ccc(Br)o2)CC1,inconclusive: -30.9%
9,O=C(NCC1CCN(Cc2ccccc2Cl)CC1)Nc1ccccc1F,inconclusive: -33.6%
10,CC1(C)CC(=O)c2cc(OCC(=O)N3CCCCCC3)ccc2O1,active: -71%
11,CC(=O)NCC1(c2ccccc2)CCN(CCCC(=O)c2ccc(F)cc2)CC1,active: -116%
12,COc1cc(NC(=O)COc2ccccc2Cl)ccc1NC(=O)C(C)C,active: -74%
13,Cc1ccc(-n2nc3c(=O)n(CC(=O)NCCc4cccs4)nc(C)c3c2C)cc1,inconclusive: -34.7%
14,O=[N+]([O-])c1cc(S(=O)(=O)Nc2ccccc2)ccc1-n1nnc2ccccc21,active: -61.5%
15,Cc1ccc(NC(=O)CCN2C(=O)NC3(CCCC3)C2=O)cc1S(=O)(=O)N1CCOCC1,inconclusive: -35.4%
16,COc1ccc(COc2ccccc2C(=O)Nc2ccccn2)cc1[N+](=O)[O-],inconclusive: -35.7%
17,O=C1OCCC1Sc1nnc(-c2ccccc2Cl)n1Cc1ccccc1 (stereo not drawn),inconclusive: -31.4%
18,CCOC(=O)C1=NOC(CNC(=O)c2c(-c3ccccc3Cl)noc2C)C1 (stereo not drawn),inconclusive: -35.6%
19,COc1ccc(S(=O)(=O)NCC(c2cccnc2)N2CCN(c3ccc(F)cc3)CC2)cc1C (stereo not drawn),inconclusive: -30.7%
20,COc1ccc(S(=O)(=O)c2c(N)n(Cc3ccco3)c3nc4ccccc4nc23)cc1,active: -71.3%
21,NC(=NCCc1ccc(Cl)cc1)NS(=O)(=O)c1ccc(F)cc1,inactive: 12.5%
22,CCCc1cc(=O)oc2c3c(c4c(c12)OC(C)(C)C=C4)OC(C)C(C)C3O (stereo not drawn),inactive: 17.4%

row,Compound,"max response, negative = inhibition"
1,COc1cc(NC(=O)CS(=O)(=O)c2ccc(C)cc2)cc(OC)c1OC,inconclusive: -33.5%
2,CC1(C)CC(C(N)=S)CCO1 (stereo not drawn),inactive: 2.85%
3,COc1ccccc1NC(=O)N1CCCC(c2nc3c(nnn3Cc3ccc(C)cc3)c(=O)[nH]2)C1 (stereo not drawn),inconclusive: -37%
4,Cc1ccc(CN(C)C(=O)c2cccc(S(=O)(=O)N3CCc4ccccc43)c2)cc1,active: -52.4%
5,CCN(Cc1ccccc1)c1ccc(/C=N/NS(=O)(=O)c2cccc([N+](=O)[O-])c2)cc1,inconclusive: -47.5%
6,CCOC(=O)c1c(-c2ccccc2)c2cc(OC)ccc2n1CCCN(C)C,active: -72.1%
7,CC1CCCN(Cc2cccc(Oc3ccccc3)c2)C1 (stereo not drawn),inconclusive: -48.1%
8,Cc1ccc(C(=O)NCCN2CCOCC2)cc1Cl,inconclusive: -45.8%
9,CN1CCN(S(=O)(=O)c2ccc(F)cc2)CC1,inconclusive: -33.7%
10,COc1cccc2sc(NNC(=O)C3=COCCO3)nc12,inactive: -11.2%
11,O=C(Nc1ccccc1F)c1csc(COCCO)n1,active: -134%
12,CN1CCN(CCCCOc2ccccc2-c2ccccc2)CC1,active: -71%
13,Cc1ccc(C)c(C(=O)CN2C3=NCCCN3c3ccccc32)c1,inactive: -7.51%
14,CC(NC(=O)NC(=O)c1cccc(Cl)c1)c1ccccc1 (stereo not drawn),inconclusive: -39.4%
15,Oc1ccc(Cl)cc1C=Nc1ccc2c3c(cccc13)CC2,inconclusive: -39.5%
16,Cn1cccc1C1Nc2ccccc2NC2=C1C(=O)CC(C)(C)C2 (stereo not drawn),inconclusive: -46.9%
17,CCC1Nc2ncnc(N3CCN(c4ccccc4)CC3)c2N(Cc2ccc(C)cc2)C1=O (stereo not drawn),active: -139%
18,CCCN1CCN(CCCNC(=O)c2ccc3nc(N4CCC(C)CC4)sc3c2)CC1,inconclusive: -48.6%
19,Cc1cc(NC(=O)CSc2nc3ccsc3c(=O)n2NC(=O)c2ccccc2)no1,inconclusive: -31.2%
20,COc1ccc(Nc2nc(C(=O)NCc3ccco3)cs2)cc1,inactive: 11%
21,O=C(CN1CCSC1=NCc1ccccc1)c1ccc(Cl)c(Cl)c1,inconclusive: -38.5%
22,CCc1ccc2oc(C(=O)NCC(c3ccc(OC)cc3)N3CCCCC3)c(C)c2c1 (stereo not drawn),active: -76.6%

# Ordered by SMILES length (falling): 21 of the compounds above.
row,Compound,"max response, negative = inhibition"
5,CCN(Cc1ccccc1)c1ccc(/C=N/NS(=O)(=O)c2cccc([N+](=O)[O-])c2)cc1,inconclusive: -47.5%
3,COc1ccccc1NC(=O)N1CCCC(c2nc3c(nnn3Cc3ccc(C)cc3)c(=O)[nH]2)C1 (stereo not drawn),inconclusive: -37%
15,Cc1ccc(NC(=O)CCN2C(=O)NC3(CCCC3)C2=O)cc1S(=O)(=O)N1CCOCC1,inconclusive: -35.4%
19,COc1ccc(S(=O)(=O)NCC(c2cccnc2)N2CCN(c3ccc(F)cc3)CC2)cc1C (stereo not drawn),inconclusive: -30.7%
20,COc1ccc(S(=O)(=O)c2c(N)n(Cc3ccco3)c3nc4ccccc4nc23)cc1,active: -71.3%
17,CCC1Nc2ncnc(N3CCN(c4ccccc4)CC3)c2N(Cc2ccc(C)cc2)C1=O (stereo not drawn),active: -139%
22,CCCc1cc(=O)oc2c3c(c4c(c12)OC(C)(C)C=C4)OC(C)C(C)C3O (stereo not drawn),inactive: 17.4%
22,CCc1ccc2oc(C(=O)NCC(c3ccc(OC)cc3)N3CCCCC3)c(C)c2c1 (stereo not drawn),active: -76.6%
19,Cc1cc(NC(=O)CSc2nc3ccsc3c(=O)n2NC(=O)c2ccccc2)no1,inconclusive: -31.2%
18,CCCN1CCN(CCCNC(=O)c2ccc3nc(N4CCC(C)CC4)sc3c2)CC1,inconclusive: -48.6%
18,CCOC(=O)C1=NOC(CNC(=O)c2c(-c3ccccc3Cl)noc2C)C1 (stereo not drawn),inconclusive: -35.6%
1,COc1cc(NC(=O)CS(=O)(=O)c2ccc(C)cc2)cc(OC)c1OC,inconclusive: -33.5%
6,CCOC(=O)c1c(-c2ccccc2)c2cc(OC)ccc2n1CCCN(C)C,active: -72.1%
21,NC(=NCCc1ccc(Cl)cc1)NS(=O)(=O)c1ccc(F)cc1,inactive: 12.5%
16,Cn1cccc1C1Nc2ccccc2NC2=C1C(=O)CC(C)(C)C2 (stereo not drawn),inconclusive: -46.9%
17,O=C1OCCC1Sc1nnc(-c2ccccc2Cl)n1Cc1ccccc1 (stereo not drawn),inconclusive: -31.4%
14,CC(NC(=O)NC(=O)c1cccc(Cl)c1)c1ccccc1 (stereo not drawn),inconclusive: -39.4%
10,COc1cccc2sc(NNC(=O)C3=COCCO3)nc12,inactive: -11.2%
9,CN1CCN(S(=O)(=O)c2ccc(F)cc2)CC1,inconclusive: -33.7%
11,O=C(Nc1ccccc1F)c1csc(COCCO)n1,active: -134%
2,CC1(C)CC(C(N)=S)CCO1 (stereo not drawn),inactive: 2.85%

# Further entries

row,Compound,"max response, negative = inhibition"
1,O=[N+]([O-])c1ccc2c(c1)Cc1cc(F)ccc1-2,inactive: 1.94%
2,CCOc1ccc(S(=O)(=O)N2CCOCC2)cc1NC(=O)c1ccccc1F,inactive: -8.71%
3,O=C(Oc1cc(-c2ccccc2)no1)c1ccc(F)cc1,inactive: 3.76%
4,CCCCN1CCC(CN2C(=S)NC[C@@H]2CC(C)C)CC1,active: -80.4%
5,COC(=O)c1[nH]c2ccccc2c1NC(=O)CN1CCCCCC1,active: -52.9%
6,Clc1ccc(OCCCCN2CCc3ccccc3C2)cc1,active: -114%
7,O=C1[C@H]2[C@@H](c3ccc(C(F)(F)F)cc3)N[C@]3(CCCN(CC4CCCCC4)C3=O)[C@H]2C(=O)N1Cc1ccccc1,inconclusive: -38.9%
8,COc1nnc(-c2ccc(N3CCOCC3)c(NC(C)=O)c2)c2ccccc12,active: -52.4%
9,Cc1ccc(S(=O)(=O)N2CCN(CC(=O)Nc3ccnn3C3CCCC3)CC2)cc1,inactive: -16.3%
10,O=C(C1=C[C@H](c2csc3ccccc23)C[C@H](OCc2ccc(CO)cc2)O1)N1CCN(Cc2ccccc2)CC1,inconclusive: -30.8%
11,CC(C)C(=O)N1CCC1(C)C(=O)NS(=O)(=O)c1cccs1 (stereo not drawn),active: -63.3%
12,O=C(NC(=S)Nc1ccc(CN2CCOCC2)cc1)c1ccc([N+](=O)[O-])cc1,active: -50.1%
13,NC(=O)C1CCN(CCC(=O)Nc2ccc(Br)cc2)CC1,inconclusive: -45.4%
14,CN(C)CCCN(C(=O)CCOc1ccccc1)c1nc2ccc(F)cc2s1,active: -91.5%
15,CN1CCN(C(=O)C2=C[C@@H](c3csc4ccccc34)C[C@@H](OCCCCO)O2)CC1,inconclusive: -42.9%
16,CCN(CC)CCN(C(=O)c1ccc2c(c1)OCCO2)c1nc2ccc(C)cc2s1,inactive: -27.8%
17,COc1ccc(Br)cc1/C=N/Nc1ccc(S(=O)(=O)Nc2ccccc2C(=O)O)cc1[N+](=O)[O-],active: -66%
18,CS(=O)(=O)N1CCN(c2ccc([N+](=O)[O-])c(NCc3ccc(Cl)cc3)c2)CC1,inconclusive: -31.1%
19,O=C(NC(=S)Nc1ccc(Cl)c(C(=O)O)c1)c1ccco1,inconclusive: -35.3%
20,CC(C)C(NS(=O)(=O)c1ccc2c(c1)C(C)(C)C(=O)N2C)C(=O)NCc1ccc(F)cc1 (stereo not drawn),inconclusive: -38.2%
21,O=C(O)c1ccc(/C=C/C(=O)c2ccc3c(c2)OCCCO3)cc1,inconclusive: -30.7%
22,COC(=O)c1ccc(C(=O)OC)c(NC(=O)COC(=O)C2CCCCC2)c1,inactive: -11.7%
